The results in this text go back to publication PMC12227070.

Amino acid sequences for entries named in this document (tags omitted). A change or cut given only in a name is not applied to a line headed by its entry.
UniProt P33176: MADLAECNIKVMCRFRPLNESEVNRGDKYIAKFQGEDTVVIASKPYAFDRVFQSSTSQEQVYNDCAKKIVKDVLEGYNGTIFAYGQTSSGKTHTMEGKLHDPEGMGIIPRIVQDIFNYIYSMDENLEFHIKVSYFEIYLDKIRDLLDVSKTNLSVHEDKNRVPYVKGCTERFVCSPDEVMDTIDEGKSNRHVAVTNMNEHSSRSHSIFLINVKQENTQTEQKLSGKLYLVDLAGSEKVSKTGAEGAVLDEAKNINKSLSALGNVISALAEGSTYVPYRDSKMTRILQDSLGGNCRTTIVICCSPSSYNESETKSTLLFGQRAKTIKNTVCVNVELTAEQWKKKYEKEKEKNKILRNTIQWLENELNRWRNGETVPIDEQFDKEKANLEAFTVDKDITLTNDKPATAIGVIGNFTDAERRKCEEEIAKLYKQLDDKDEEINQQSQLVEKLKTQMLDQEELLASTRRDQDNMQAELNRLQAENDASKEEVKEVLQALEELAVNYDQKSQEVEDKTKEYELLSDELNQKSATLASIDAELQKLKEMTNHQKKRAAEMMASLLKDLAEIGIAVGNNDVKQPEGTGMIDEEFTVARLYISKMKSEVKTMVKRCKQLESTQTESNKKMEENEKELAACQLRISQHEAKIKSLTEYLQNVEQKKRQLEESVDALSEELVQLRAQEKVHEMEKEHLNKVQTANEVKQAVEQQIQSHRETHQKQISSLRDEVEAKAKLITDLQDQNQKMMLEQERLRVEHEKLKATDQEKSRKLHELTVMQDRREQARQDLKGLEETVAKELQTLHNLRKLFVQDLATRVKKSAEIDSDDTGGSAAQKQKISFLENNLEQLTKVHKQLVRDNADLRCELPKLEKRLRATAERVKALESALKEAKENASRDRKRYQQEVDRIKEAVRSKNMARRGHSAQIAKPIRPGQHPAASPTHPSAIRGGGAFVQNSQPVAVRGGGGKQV
UniProt Q7L804: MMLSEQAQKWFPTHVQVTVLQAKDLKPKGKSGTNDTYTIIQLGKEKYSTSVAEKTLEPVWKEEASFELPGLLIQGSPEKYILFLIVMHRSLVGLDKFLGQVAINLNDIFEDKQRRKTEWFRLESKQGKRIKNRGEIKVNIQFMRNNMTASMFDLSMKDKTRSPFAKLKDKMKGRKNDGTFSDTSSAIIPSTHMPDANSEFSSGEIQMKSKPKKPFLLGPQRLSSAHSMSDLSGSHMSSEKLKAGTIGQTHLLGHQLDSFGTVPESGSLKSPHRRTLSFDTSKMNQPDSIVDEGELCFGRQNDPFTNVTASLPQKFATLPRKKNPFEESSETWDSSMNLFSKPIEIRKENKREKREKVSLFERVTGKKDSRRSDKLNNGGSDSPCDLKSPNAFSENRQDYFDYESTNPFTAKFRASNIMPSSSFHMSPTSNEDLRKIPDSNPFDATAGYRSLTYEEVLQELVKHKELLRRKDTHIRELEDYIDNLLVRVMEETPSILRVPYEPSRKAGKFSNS
UniProt P05556: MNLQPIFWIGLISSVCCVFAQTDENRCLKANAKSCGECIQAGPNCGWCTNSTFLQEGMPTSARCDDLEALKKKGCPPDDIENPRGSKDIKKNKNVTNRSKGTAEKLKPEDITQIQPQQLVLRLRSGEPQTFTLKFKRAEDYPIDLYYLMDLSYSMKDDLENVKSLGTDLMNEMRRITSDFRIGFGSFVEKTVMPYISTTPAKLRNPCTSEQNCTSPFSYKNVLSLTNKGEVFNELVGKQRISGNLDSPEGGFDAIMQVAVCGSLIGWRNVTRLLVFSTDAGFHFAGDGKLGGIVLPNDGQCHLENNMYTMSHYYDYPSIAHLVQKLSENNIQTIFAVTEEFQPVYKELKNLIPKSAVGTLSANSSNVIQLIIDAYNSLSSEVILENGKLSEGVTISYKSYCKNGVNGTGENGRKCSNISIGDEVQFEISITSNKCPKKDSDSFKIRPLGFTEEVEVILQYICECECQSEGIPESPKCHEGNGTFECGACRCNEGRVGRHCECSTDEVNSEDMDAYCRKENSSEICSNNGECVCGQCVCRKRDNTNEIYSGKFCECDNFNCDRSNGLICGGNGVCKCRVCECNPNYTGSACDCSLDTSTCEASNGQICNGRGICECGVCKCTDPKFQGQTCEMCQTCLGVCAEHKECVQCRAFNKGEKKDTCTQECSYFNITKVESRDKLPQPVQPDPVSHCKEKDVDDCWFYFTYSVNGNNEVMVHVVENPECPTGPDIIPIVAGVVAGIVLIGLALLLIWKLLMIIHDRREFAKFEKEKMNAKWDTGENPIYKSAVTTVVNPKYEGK

Changes are numbered by the printed parent chain. Results are given in words; binding and its absence hold for the method and conditions named. Binding seen in cells or lysates may run through a third protein. Here binding means that the protein was enriched with, or labelled near, the bait; the list need not be complete. For part of these data: No binding means not detected with the bait. Where a sequence is shown, tags or fusion partners need not be part of it.

For experiment [1], the target named is T1, mycBirA*-Rab25 wt (UniProt P57735).
T1 sequence: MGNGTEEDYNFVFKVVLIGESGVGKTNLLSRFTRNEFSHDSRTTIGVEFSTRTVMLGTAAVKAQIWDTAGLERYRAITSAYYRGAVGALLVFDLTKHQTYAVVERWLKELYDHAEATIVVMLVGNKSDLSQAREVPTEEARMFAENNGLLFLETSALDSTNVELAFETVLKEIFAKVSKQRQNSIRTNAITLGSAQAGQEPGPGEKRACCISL
In words: proximity labelling; Rab25-BioID in living A2780 cells with mass spectrometry (label-free quantification); reanalysis of the previously published dataset PXD033693 (ref. 22); hits: at least 1.8-fold increase over BirA alone in at least three of four replicates.

Experiment [2] deals with T1, mycBirA*-Rab25 wt. In words: proximity labelling; BioID in A2780 stably expressing mycBirA* fused Rab25 wt or mutants; 1 μM biotin, 16 hours; lysates equalized to total protein, biotinylated proteins pulled down with streptavidin beads, immunoblot; Ctrl, no BirA. (In general: Immunoblotting shows a protein as a band on a membrane.)
A further experiment has as its target T2, mycBirA*-Rab25 DN (T26N) (UniProt P57735).
T2 sequence: T1 sequence with T26N
The description is as above.

As to “FMNL1 (formin-like protein 1) (from UniProt O95466-2)”, the binding entry with mycBirA*-Rab25 wt [1] was “binds”; in the experiment with mycBirA*-Rab25 wt [2], “binds”; with mycBirA*-Rab25 DN (T26N), “no binding”.
Consider Kif5b (from UniProt P33176 1-963), for which, in the experiment with mycBirA*-Rab25 wt [1], the binding entry is “binds”.
In the case of RAB11FIP2 (from UniProt Q7L804 1-512), the binding result in the experiment with mycBirA*-Rab25 wt [1] was “binds”.
As to “endothelial growth factor receptor (EGFR) (from UniProt P00533 25-1210)”, the binding result with mycBirA*-Rab25 wt [1] is “binds”.
On to “integrin β1 (from UniProt P05556 21-798) (receptor)”, for which the binding entry with mycBirA*-Rab25 wt [1] is “binds”; with mycBirA*-Rab25 wt [2], “binds”; with mycBirA*-Rab25 DN (T26N), “no binding”.
